Measured values reported in US5834244A, “Factor VIIa inhibitors from Kunitz domain proteins” (Genentech, Inc., priority 1995, dated 1998).
Part of at least one peptide drawing is inferred or uncertain, most often the ends. Positions of bridges follow the written chain, without caps; N, C: chain ends. No end group written: not given here.

Tests used:
rabbit plasma [1] = test: PT clotting time in rabbit plasma; type: biochemical; settings: 50 μM
Description: (§1) Samples of rabbit plasma were assayed using an MLA 800 coagulometer and Dade reagents. Actin FS® was the activator in the APTT assay. Rabbit Thromboplastin with Ca++ was used for the PT assays; the rabbit thromboplastin was diluted two-fold. All mutant inhibitors tested prolonged clotting by at least one fold. […] A greater than 10 fold prolongation of the clotting time at 40μM was observed.

normal human plasma [2] = test: Prothrombin time (PT) assay, clotting initiated by TF membranes; type: biochemical; settings: 40 μM inhibitor, uninhibited 30 s
rabbit plasma [3] = test: APTT clotting time in rabbit plasma; type: biochemical; settings: 50 μM
Description: as §1

normal human plasma [4] = test: Activated partial thromboplastin time (APTT) assay, initiated by ellagic acid; type: biochemical; settings: 40 μM inhibitor, uninhibited 31 s
Description: For the activated partial thromboplastin time (APTT) assays, the activation time was set at 120 sec and acquisition time at 300 to 600 sec depending on the expected outcome of the assay. Citrated normal human plasma and inhibitor were incubated together. The sample (plasma and inhibitor) and activator (Instrumentation Laboratories Ellagic acid/Phospholipid mix Test Reagent) were automatically pipetted and incubated together for 2 min at 37° C., then CaCl2 was added and clotting time determined by means of optical assessment. The total incubation time of inhibitor with plasma was ca. 3 min before addition of activator, and 5 min before addition of CaCl2.

[5] = tested on: Male New Zealand white rabbits; test: Rabbit deep medial injury model (carotid artery patency, thrombus weight); type: in vivo
Description: Male New Zealand white rabbits (~4 kg) were anesthetized to surgical anesthesia plane with an IM injection of Ketamine / Xylaxine. The rabbits were placed supine on a restraining board, warmed to 37° C., and the neck and inner thigh area shaved. Teflon catheters were replaced in a marginal ear vein and femoral artery for drug delivery and sample collection respectively. Prior to treatment, blood samples were collected for coagulation tests (APTT and PT). Bleeding time was assessed from a cut made in the cuticle portion of a hind limb nail. Incisions were made in the neck region and the entire left common carotid artery and its branches were surgically isolated. An ultrasonic flow probe (Transonics®) was placed on the common carotid approximately 5 cm caudal to the common--internal bifurcation. After blood flow reached a stable baseline, drugs (saline or test compounds) were delivered via the marginal ear vein. A deflated embolectomy catheter (Fogarty®, 3F) was then introduced into the lumen of the common via an incision in the lingual branch. Blood flow through the artery was stopped briefly while the catheter was introduced and loosely secured with 2-0 silk tie at the incision site. After the catheter was in place and secure, blood flow was restored. The deflated balloon was advanced to within 2 mm of the flow probe and inflated with saline until resistance of the vessel wall was felt. The catheter was pulled back with a steady motion to the first branch and then deflated. This procedure was repeated a total of six times for each experimental animal, after which the catheter was removed. […] Over 40 minutes, blood samples were taken for APTT and PT measurements, cuticle bleeding times were assessed and blood flow through the carotid monitored. Duration of patency was defined as the total amount of time (maximum=40 minutes) that any measurable blood flow is detected in the artery. Patency rate refers to the percentage of animals tested who had carotid artery blood flow ≥5 minutes. At the end of the experiment the rabbit was euthanized and the carotid artery removed and opened. If any thrombus was present, it was removed, blotted and the weight recorded.

VREVCSEQAEPGPCRAMMKRWYFDVTEGKCAPFIYGGCYGNRNNFDTEEYCAAVCGSA (disulfide 5-55, 14-38, 30-51) [IV-49C]
PT, fold increase over baseline (rabbit plasma [1]): 4.4 fold
PT clotting time, fold prolongation (normal human plasma [2]): 2.5 fold
APTT, fold increase over baseline (rabbit plasma [3]): 6.9 fold
APTT clotting time, fold prolongation (normal human plasma [4]): 2.0 fold
Patency (%) ([5]; 2 mg/kg IV bolus, animals with carotid blood flow ≥5 minutes): 83%
Duration (Min.) of patency ([5]; 2 mg/kg IV bolus, maximum 40 minutes, mean ± sem): 33.3 ± 6.7 min
Clot (mps) ([5]; 2 mg/kg IV bolus, thrombus weight, mean ± sem): 19.7 ± 9.6 mps
patency and clot size compared to the saline control (in words) ([5]; rabbit, in vivo): significantly prolonged patency and reduced clot size
